# According to US20140141099A1, “DRUG DISCOVERY METHODS” (Vertex Pharmaceuticals Incorporated, priority 2007, published 2014):
# Protein sequences, listed by entry. Tags and fused reporters are not part of them.
# UniProt Q96GD4, whole entry: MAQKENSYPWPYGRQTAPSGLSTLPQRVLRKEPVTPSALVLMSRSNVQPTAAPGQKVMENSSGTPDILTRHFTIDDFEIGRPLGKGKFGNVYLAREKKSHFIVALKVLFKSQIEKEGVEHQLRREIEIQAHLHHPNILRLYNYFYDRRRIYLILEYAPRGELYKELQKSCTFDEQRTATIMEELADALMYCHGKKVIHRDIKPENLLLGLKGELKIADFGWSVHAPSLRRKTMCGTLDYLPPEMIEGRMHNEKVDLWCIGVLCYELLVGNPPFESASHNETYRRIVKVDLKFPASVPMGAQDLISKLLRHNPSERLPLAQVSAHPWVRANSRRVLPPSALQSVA
# Some entries share one result that the patent states for a list of compounds.
# Target: Aurora-B (Homo sapiens, UniProt Q96GD4)
# Experiment: Aurora-B Ki* Determination and Ki/Ki* ratio (radioactive-phosphate incorporation assay)
# Assay type: biochemical
# Conditions: Ki* after pre-incubation and rapid dilution
row,Structure (SMILES),AurB Ki/AurB Ki* ratio
1,CCC(=O)Nc1ccc(Sc2nc(NCCN3CCCCC3)cc(Nc3cc(C)n[nH]3)n2)cc1 [Compound 1],> 3
2,Cc1cc(Nc2cc(N3CCN(C(C)(C)C)CC3)nc(Sc3ccc(NC(=O)C4CC4)cc3)n2)[nH]n1 [Compound 3],> 3
3,COc1cccc(Sc2nc(NC3=NN=C(C)C3)cc(N3CCN(C(C)(C)C)CC3)n2)c1 [Compound 4],> 3
4,Cc1cc(Nc2cc(N3CCN(C(C)(C)C)CC3)nc(Sc3ccc(NC(=O)C4CCCC4)cc3)n2)[nH]n1 [Compound 5],> 3
5,C#CC(C)(C)N1CCN(c2cc(Nc3cc(C)n[nH]3)nc(Sc3ccc(NC(=O)CC)cc3)n2)CC1 [Compound 6],> 3
6,CCC(=O)Nc1ccc(Sc2nc(Nc3cc(C)n[nH]3)cc(N3CCC(N4CCCC4)CC3)n2)cc1 [Compound 7],> 3
7,CCC(=O)Nc1ccc(Sc2nc(Nc3cc(C)n[nH]3)cc(N3CCN(C(C)(C)CO)CC3)n2)cc1 [Compound 8],> 3
8,CCC(=O)Nc1ccc(Sc2nc(Nc3cc(C)n[nH]3)cc(N3CCN(C(C)(C)CC)CC3)n2)cc1 [Compound 9],> 3
9,CCC(=O)Nc1ccc(Sc2nc(Nc3cc(C)n[nH]3)cc(N3CCN(C(C)(C)CF)CC3)n2)cc1 [Compound 10],> 3
10,CCC(=O)Nc1ccc(Sc2nc(Nc3cc(C)n[nH]3)cc(N3CCC(NC(C)(C)C)CC3)n2)cc1 [Compound 11],> 3
11,CCC(=O)Nc1ccc(Sc2nc(Nc3cc(C)n[nH]3)cc(N3CCC(O)(C(C)(C)C)CC3)n2)cc1 [Compound 14],> 3
12,CCC(=O)Nc1ccc(Sc2nc(Nc3cc(C)n[nH]3)cc(N3CCC(N(C)C(C)(C)C)CC3)n2)cc1 [Compound 15],> 3
13,CCC(=O)Nc1ccc(Sc2nc(Nc3cc(C)n[nH]3)cc(N3CC[C@H](N4CCCC4)C3)n2)cc1 [Compound 16],> 3
14,CCC(=O)Nc1ccc(Sc2nc(Nc3cc(C)n[nH]3)cc(N3CCC4(CCN(C)C4)CC3)n2)cc1 [Compound 17],> 3
15,CCC(=O)Nc1ccc(Sc2nc(Nc3cc(C4CC4)n[nH]3)cc(N3CCC(N4CCCC4)CC3)n2)cc1 [Compound 18],> 3
16,CCC(=O)Nc1ccc(Sc2nc(Nc3cc(C)n[nH]3)cc(N3CC4CN(C(C)C)CC4C3)n2)cc1 (stereo not drawn) [Compound 19],> 3
17,CCC(=O)Nc1ccc(Sc2nc(Nc3cc(C)n[nH]3)cc(N3CC(O)(C(C)(C)C)C3)n2)cc1 [Compound 20],> 3
18,CCC(=O)Nc1ccc(Sc2nc(Nc3cc(C)n[nH]3)cc(N3CC(O)(C4CC4)C3)n2)cc1 [Compound 21],> 3
19,CCC(=O)Nc1ccc(Sc2nc(Nc3cc(C)n[nH]3)cc(N3CC(C)(N4CCCC4)C3)n2)cc1 [Compound 22],> 3
20,CCC(=O)Nc1ccc(Sc2nc(Nc3cc(C)n[nH]3)cc(N3CC=C(C(C)(C)C)CC3)n2)cc1 [Compound 23],> 3
21,CCC(=O)Nc1ccc(Sc2nc(Nc3cc(C)n[nH]3)cc(N3CCC(O)(c4cc(F)ccc4OC)CC3)n2)cc1 [Compound 24],> 3
22,CCC(=O)Nc1ccc(Sc2nc(Nc3cc(C)n[nH]3)cc(N3CCC(C#N)(c4ccccc4OC)CC3)n2)cc1 [Compound 25],> 3
23,CCC(=O)Nc1ccc(Sc2nc(Nc3cc(C)n[nH]3)cc(N3CC4(C3)OCC4(C)C)n2)cc1 [Compound 26],> 3
24,CCC(=O)Nc1ccc(Sc2nc(Nc3cc(C)n[nH]3)cc(N3CCC(O)(C(C)(C)C)C3)n2)cc1 (stereo not drawn) [Compound 27],> 3
25,CCC(=O)Nc1ccc(Sc2nc(Nc3cc(C)n[nH]3)cc(N3CC(O)(C4CCCC4)C3)n2)cc1 [Compound 29],> 3
26,CCC(=O)Nc1ccc(Sc2nc(Nc3cc(C)n[nH]3)cc(N3CC(O)(C(C)C)C3)n2)cc1 [Compound 30],> 3
27,Cc1cc(Nc2cc(N3CC(O)(C4CC4)C3)nc(Sc3ccc(NC(=O)C4CC4)cc3)n2)n[nH]1 [Compound 31],> 3
28,Cc1cc(Nc2cc(N3CCC(F)C3)nc(Sc3ccc(NC(=O)CC(F)(F)F)cc3)n2)[nH]n1 (stereo not drawn) [Compound 32],> 3
29,Cc1cc(Nc2cc(N3CCC(N4CCCC4)CC3)nc(Sc3ccc4ccccc4c3)n2)[nH]n1 [Compound 33],> 3
30,CCOc1ccc(Sc2nc(Nc3cc(C)n[nH]3)cc(N3CCN(C(C)(C)C)CC3)n2)cc1 [Compound 36],> 3
